The assay concerns the target Δ28-269 SaMGT (truncated monoglycosyltransferase from S. aureus with its transmembrane domain) (S. aureus) (UniProt Q99T05). Kind of assay: crystal structure.

No constants are given. Whether binding was seen depends on the method and setting.

B1: Δ28-269 SaMGT (truncated monoglycosyltransferase from S. aureus with its transmembrane domain) (domain or fragment, UniProt Q99T05 28-269)
chain: QPVGKPPKKKKSKRILLKILLTILIIIALFIGIMYFLSTRDNVDELRKIENKSSFVSADNMPEYVKGAFISMEDERFYNHHGFDLKGTTRALFSTISDRDVQGGSTITQQVVKNYFYDNDRSFTRKVKELFVAHRVEKQYNKNEILSFYLNNIYFGDNQYTLEGAANHYFGTTVNKNSTTMSHITVLQSAILASKVNAPSVYNINNMSENFTQRVSTNLEKMKQQNYINETQYQQAMSQLNR
B1: the binding result is recorded as “no binding”.

Source of the values: doi:10.1101/292912 (bioRxiv, 2018).
